Article doi:10.1101/2023.09.18.558310
Results are given in words; binding and its absence hold for the method and conditions named. For some of these results: In cells and extracts the contact can be indirect. Some binding calls cover weakened binding; strength is not graded here. For some of these results: Tags and fused reporters may be left off the sequences shown.

By UniProt entry, the sequences of proteins in these tests, tags left out.
UniProt O04719: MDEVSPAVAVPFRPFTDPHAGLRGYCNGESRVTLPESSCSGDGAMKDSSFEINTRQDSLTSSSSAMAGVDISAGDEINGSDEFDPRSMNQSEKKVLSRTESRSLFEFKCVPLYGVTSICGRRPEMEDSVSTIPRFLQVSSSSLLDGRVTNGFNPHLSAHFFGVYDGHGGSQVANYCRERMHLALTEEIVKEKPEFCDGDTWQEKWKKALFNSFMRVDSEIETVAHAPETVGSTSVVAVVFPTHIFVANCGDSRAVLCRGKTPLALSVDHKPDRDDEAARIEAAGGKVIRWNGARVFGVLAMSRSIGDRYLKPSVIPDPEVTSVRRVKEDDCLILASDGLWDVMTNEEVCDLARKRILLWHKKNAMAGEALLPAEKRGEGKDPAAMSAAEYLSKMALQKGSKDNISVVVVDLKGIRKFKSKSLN

What was measured:
[1] = target: T1, VAMP724-mGFP5 (Arabidopsis) (UniProt O23429); test: co-IP
T1 sequence: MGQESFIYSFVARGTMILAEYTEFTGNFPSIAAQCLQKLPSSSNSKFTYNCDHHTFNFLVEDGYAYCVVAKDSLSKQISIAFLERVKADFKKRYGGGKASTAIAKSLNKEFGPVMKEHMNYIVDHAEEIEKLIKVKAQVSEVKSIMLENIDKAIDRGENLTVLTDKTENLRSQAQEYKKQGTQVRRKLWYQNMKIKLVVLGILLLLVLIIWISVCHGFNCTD

[2] = target: T2, FLOT1-mGFP5 (Arabidopsis) (UniProt Q501E6); test: co-IP
T2 sequence: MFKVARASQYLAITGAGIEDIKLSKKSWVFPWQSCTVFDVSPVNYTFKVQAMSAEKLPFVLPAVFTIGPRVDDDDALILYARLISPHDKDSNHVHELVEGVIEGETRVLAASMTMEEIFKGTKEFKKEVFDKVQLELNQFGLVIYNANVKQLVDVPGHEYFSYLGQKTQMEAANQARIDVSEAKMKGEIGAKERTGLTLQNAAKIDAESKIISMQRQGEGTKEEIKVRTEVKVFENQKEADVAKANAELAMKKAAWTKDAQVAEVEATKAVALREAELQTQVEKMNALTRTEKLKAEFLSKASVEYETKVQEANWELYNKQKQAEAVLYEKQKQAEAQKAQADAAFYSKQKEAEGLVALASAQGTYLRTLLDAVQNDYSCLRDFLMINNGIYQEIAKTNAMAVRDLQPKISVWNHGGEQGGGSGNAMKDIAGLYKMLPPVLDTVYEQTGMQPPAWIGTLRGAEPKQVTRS

[3] = target: T3, SnRK2.2-mGFP5 (Arabidopsis) (UniProt Q39192); test: co-IP
T3 sequence: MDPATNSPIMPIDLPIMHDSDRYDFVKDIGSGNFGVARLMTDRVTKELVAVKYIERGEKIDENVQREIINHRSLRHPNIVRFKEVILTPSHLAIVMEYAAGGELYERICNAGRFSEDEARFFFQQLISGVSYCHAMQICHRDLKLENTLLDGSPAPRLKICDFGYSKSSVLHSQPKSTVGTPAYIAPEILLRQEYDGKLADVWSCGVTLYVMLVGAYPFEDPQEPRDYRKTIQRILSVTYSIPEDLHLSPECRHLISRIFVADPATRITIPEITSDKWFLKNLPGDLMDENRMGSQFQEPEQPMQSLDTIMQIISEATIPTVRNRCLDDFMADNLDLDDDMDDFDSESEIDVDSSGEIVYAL

HAB2-mGFP5 (Arabidopsis) = target: T4, HAB2-mGFP5 (Arabidopsis) (UniProt Q9LNP9); test: co-IP
T4 sequence: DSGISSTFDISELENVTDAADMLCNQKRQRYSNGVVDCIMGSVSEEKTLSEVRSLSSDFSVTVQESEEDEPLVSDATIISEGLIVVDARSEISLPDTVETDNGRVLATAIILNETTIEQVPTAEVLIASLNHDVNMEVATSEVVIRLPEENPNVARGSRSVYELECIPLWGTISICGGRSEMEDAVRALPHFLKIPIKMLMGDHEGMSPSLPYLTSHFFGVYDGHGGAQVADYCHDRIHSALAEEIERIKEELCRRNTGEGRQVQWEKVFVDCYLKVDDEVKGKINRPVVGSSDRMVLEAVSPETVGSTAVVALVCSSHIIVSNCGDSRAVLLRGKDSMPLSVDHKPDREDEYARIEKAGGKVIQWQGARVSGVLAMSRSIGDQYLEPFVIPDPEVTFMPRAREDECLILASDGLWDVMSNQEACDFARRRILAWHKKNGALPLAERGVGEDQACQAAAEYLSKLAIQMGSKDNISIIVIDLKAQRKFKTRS

[4] = target: T5, VAMP724 in pCAMBIA1300-NLuc (Arabidopsis) (UniProt O23429); test: split reporter
T5 sequence: T1 sequence

[5] = target: T6, YFPN-SnRK2.2 (Arabidopsis) (UniProt Q39192); test: split reporter
T6 sequence: T3 sequence

YFPN-ABI2 (Arabidopsis) = YFPN-ABI2 (Arabidopsis) (UniProt O04719); test: split reporter
YFPN-FLOT1 (Arabidopsis) = target: T7, YFPN-FLOT1 (Arabidopsis) (UniProt Q501E6); test: split reporter
T7 sequence: T2 sequence

[6] = target: T8, YFPN-SnRK2.3 (Arabidopsis) (UniProt Q39193); test: split reporter
T8 sequence: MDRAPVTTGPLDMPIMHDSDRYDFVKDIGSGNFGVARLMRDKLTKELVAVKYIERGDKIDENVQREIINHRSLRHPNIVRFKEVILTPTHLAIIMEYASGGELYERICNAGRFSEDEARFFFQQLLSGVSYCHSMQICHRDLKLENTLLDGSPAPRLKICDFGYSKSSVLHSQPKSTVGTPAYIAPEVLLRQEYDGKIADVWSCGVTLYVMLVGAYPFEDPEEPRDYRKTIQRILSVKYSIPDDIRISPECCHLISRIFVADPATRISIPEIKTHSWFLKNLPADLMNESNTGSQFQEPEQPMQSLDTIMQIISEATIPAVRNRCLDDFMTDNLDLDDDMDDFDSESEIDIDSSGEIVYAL

YFPN-HAI2 (Arabidopsis) = target: T9, YFPN-HAI2 (Arabidopsis) (UniProt Q9LNW3); test: split reporter
T9 sequence: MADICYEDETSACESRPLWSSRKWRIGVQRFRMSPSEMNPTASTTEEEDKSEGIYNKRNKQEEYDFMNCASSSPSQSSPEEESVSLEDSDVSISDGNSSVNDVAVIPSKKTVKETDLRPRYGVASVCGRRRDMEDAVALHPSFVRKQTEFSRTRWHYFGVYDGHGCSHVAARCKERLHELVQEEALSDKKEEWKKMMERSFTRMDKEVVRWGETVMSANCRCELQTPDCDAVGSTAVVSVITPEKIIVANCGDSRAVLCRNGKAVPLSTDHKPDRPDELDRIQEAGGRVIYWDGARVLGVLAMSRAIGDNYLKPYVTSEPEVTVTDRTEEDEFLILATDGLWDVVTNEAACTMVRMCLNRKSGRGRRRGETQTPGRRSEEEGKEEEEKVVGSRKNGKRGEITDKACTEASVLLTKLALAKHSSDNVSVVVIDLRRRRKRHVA

[7] = target: T10, YFPN-VAMP724 (Arabidopsis) (UniProt O23429); test: split reporter
T10 sequence: T1 sequence

SnRK2.2-BD (Arabidopsis) = target: T11, SnRK2.2-BD (Arabidopsis) (UniProt Q39192); test: two-hybrid
T11 sequence: T3 sequence

HAB2-BD (Arabidopsis) = target: T12, HAB2-BD (Arabidopsis) (UniProt Q9LNP9); test: two-hybrid
T12 sequence: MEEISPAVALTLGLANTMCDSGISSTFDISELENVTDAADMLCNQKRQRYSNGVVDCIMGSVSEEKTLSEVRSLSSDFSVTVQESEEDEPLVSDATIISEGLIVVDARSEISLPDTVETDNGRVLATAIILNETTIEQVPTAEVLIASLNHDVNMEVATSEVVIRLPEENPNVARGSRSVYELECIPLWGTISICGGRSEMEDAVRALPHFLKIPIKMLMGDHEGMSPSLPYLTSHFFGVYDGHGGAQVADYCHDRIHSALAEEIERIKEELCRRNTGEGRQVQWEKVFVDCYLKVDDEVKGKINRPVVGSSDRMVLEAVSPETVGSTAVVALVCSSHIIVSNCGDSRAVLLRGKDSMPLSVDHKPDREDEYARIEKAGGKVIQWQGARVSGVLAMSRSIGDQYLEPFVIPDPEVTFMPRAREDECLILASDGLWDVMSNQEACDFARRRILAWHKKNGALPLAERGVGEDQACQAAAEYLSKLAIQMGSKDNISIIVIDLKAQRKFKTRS

Measured: binding

B1: CAR1-mCherry (protein, UniProt Q9FHP6 1-168)
chain: MENLVGLLRIHVKRGVNLAIRDISSSDPYIVVHCGKQKLKTRVVKHSVNPEWNDDLTLSVTDPNLPIKLTVYDYDLLSADDKMGEAEFHIGPFIEAIKFAHQLGPGLPNGTIIKKIEPSRKNCLSESSHIVLNQGKIVQNMFLRLQHVECGEVELQLEWIDVPGSRGI
binds: [1] | [2] | [3] | HAB2-mGFP5 (Arabidopsis)

B2: CAR1 in pCAMBIA1300-CLuc (protein, UniProt Q9FHP6 1-168)
chain: B1 chain
binds: [4]

B3: CAR1-YFPC (protein, UniProt Q9FHP6 1-168)
chain: B1 chain
binds: [5] | YFPN-ABI2 (Arabidopsis) | YFPN-FLOT1 (Arabidopsis) | [6] | YFPN-HAI2 (Arabidopsis) | [7]

B4: CAR1-AD (protein, UniProt Q9FHP6 1-168)
chain: B1 chain
binds: SnRK2.2-BD (Arabidopsis) | HAB2-BD (Arabidopsis)
